{
  "source": "patent US12435032B2",
  "about": "“L-γ-methyleneglutamine compounds and methods of use” (University of Mississippi, priority 2019, dated 2025)",
  "format_in_all_cases": "cell-based",
  "key": {"[1]": {"system": "MCF-10A non-cancerous breast cells", "assay": "Growth inhibition of MCF-10A cells (negative control line)", "settings": "Homo sapiens, dose-response 0.32-320 μM", "method": "(§1) Compound efficacy was then compared to those of tamoxifen and olaparib. […] Olaparib was chosen because it is one of a few FDA-approved chemotherapeutics for triple-negative breast cancer.\n(§2) Cells were incubated for 15 minutes at 37° C."}, "[2]": {"system": "SK-BR-3 (ER−/PR−/HER2+) breast cancer cells", "assay": "Growth inhibition of SK-BR-3 cells", "settings": "Homo sapiens, dose-response 0.32-320 μM", "method": "as §1, §2"}, "[3]": {"system": "MCF-7 breast cancer cells", "assay": "Cytotoxicity (cell death, propidium iodide) in MCF-7 cells", "settings": "Homo sapiens, MCF7; MCF-7, 72 h exposure, dose-response 0.32-320 μM"}},
  "data": [
    {"smiles": "CC/C(=C(\\c1ccccc1)c1ccc(OCCN(C)C)cc1)c1ccccc1", "note": "[Tamoxifen, reference compound]", "values": [
      {"measurement": "IC50", "setting": "[1]; 24 h exposure", "value": "> 1000", "unit": "µM"},
      {"measurement": "IC50", "setting": "[1]; 72 h exposure", "value": "> 1000", "unit": "µM"},
      {"measurement": "IC50", "setting": "[2]; SK-BR-3, 24 h exposure", "value": 0.9, "unit": "µM"},
      {"measurement": "IC50", "setting": "[2]; SK-BR-3, 72 h exposure", "value": 1.7, "unit": "µM"},
      {"measurement": "EC50", "setting": "[3]", "value": 285, "unit": "µM"}
    ]}
  ]
}
